Positions count from the first letter of the chain named. In names and notes the source's numbering stands. Results are given in words; binding and its absence hold for the method and conditions named. Tags and fused reporters may be left off the sequences shown.
B1: His-MinD-G12V (enzyme, UniProt Q01464 1-268)
chain: MGEAIVITSGKVGVGKTTTSANLGTALAILGKRVCLVDTDIGLRNLDVVMGLENRIIYDLVDVVEGRCKMHQALVKDKRFDDLLYLMPAAQTSDKTAVAPEQIKNMVQELKQEFDYVIIDCPAGIEQGYKNAVSGADKAIVVTTPEISAVRDADRIIGLLEQEENIEPPRLVVNRIRNHLMKNGDTMDIDEIVQHLSIDLLGIVADDDEVIKASNHGEPIAMDPKNRASIAYRNIARRILGESVPLQVLEEQNKGMMAKIKSFFGVRS

Protein sequences, listed by entry. Tags and fused reporters are not part of them. Residues count along the entry.
UniProt P02769, residues 25-607: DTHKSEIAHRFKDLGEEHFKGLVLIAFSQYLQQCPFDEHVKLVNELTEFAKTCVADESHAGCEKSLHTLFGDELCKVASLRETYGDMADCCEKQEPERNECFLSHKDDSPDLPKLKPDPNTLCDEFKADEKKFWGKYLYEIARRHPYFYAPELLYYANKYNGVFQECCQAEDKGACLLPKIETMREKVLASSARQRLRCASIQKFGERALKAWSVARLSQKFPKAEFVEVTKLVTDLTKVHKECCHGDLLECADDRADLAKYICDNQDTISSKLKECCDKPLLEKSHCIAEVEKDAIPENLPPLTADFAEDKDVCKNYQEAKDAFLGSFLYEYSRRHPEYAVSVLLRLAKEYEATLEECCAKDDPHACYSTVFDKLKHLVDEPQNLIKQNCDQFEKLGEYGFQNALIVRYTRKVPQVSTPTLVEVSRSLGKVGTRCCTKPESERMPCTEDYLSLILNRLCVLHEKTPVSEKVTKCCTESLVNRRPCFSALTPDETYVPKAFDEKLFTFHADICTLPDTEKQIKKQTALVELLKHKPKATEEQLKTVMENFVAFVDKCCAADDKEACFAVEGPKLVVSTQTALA

Columns and labels:
[1] = molecular target: T1, His-MinD (B. subtilis MinD, N-terminally His-tagged) (B. subtilis) (UniProt Q01464); test: BLI; BLItz, streptavidin sensor coated with biotinylated liposomes, first dipped into 8 uM His-MinD, then into 8 uM His-MinD together with 8 uM of the partner (His-MinC, His-PDZ or BSA); gel filtration buffer C; both purified
T1 sequence: B1 chain with V12G

[2] = molecular target: His-MinD-G12V (B. subtilis) (UniProt Q01464); test: SEC; Superdex200 Increase 10/300 GL, 0.75 ml/min, buffer C (50 mM HEPES-KOH, 150 mM KCl, 10% glycerol, 0.1 mM EDTA, pH 7.2) with 0.4 mM TCEP and 0.2 mM Mg2+-ADP; column calibrated with a gel filtration standard; both purified

binding [1] | binding [2] | Molecule
no binding (tested: 8 µM) | – | bovine serum albumin (from UniProt P02769 25-607)
– | no binding | B1

— paper PMC13246001, “Membrane binding controls the ATPase cycle and localization of MinD in Bacillus subtilis” (eLife, 2026)
